Measurements from PMC10883278.
Results are given in words; binding and its absence hold for the method and conditions named. In cells and extracts the contact can be indirect. Some binding calls cover weakened binding; strength is not graded here. For some of these results: Sequences can lack the tags named with a protein.

Amino acid sequences for entries named in this document (tags omitted). A change or cut given only in a name is not applied to a line headed by its entry. Residues count along the entry.
UniProt P03372: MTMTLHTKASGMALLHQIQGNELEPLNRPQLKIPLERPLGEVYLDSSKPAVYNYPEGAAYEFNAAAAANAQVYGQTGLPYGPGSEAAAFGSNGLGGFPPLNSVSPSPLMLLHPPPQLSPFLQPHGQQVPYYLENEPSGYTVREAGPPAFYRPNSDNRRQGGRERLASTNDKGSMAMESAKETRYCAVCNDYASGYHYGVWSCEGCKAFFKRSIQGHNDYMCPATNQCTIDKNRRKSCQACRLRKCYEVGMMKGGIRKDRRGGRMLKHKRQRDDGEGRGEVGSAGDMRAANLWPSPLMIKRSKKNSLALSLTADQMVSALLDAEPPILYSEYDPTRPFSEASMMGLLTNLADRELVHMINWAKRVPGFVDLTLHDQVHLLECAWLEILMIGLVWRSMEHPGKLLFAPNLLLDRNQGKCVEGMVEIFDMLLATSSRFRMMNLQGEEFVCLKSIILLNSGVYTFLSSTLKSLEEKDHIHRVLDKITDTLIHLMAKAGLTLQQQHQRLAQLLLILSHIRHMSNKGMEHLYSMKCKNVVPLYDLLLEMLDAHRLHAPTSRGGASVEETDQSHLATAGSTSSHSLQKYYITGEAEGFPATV
GST ERα-AF2 (282-595aa): residues 282-595 of P03372

Columns and labels:
[1] = target: T1, endogenous MYSM1 (human (endogenous in MCF-7 and T47D)) (UniProt Q5VVJ2); test: co-IP; reciprocal co-immunoprecipitation of endogenous MYSM1 and ERα from MCF-7 (Fig. 1C,D) and T47D (Fig. EV1C,D, in response to E2) lysates with the indicated antibodies; immunoblot
T1 sequence: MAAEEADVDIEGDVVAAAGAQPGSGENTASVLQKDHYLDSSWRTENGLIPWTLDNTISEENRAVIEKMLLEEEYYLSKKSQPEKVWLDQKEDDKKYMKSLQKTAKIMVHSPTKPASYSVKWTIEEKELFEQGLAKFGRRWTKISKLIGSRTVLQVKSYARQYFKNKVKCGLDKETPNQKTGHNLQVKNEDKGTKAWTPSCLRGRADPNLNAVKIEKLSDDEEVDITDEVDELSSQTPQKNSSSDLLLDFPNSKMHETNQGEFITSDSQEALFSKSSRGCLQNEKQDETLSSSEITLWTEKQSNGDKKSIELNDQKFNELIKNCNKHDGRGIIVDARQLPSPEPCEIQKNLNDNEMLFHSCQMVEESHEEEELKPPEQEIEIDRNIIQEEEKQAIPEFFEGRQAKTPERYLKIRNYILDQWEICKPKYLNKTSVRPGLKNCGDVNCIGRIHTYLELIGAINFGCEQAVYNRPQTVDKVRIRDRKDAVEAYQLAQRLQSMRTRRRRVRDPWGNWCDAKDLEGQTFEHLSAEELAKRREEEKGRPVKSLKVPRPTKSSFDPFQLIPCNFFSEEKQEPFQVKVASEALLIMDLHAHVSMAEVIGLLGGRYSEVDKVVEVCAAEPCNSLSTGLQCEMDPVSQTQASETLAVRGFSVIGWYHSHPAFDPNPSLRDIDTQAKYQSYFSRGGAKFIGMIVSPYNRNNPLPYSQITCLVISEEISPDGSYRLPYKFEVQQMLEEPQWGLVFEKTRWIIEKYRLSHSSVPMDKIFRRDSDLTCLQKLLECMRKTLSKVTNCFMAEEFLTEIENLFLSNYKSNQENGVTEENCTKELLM

[2] = target: T2, FLAG-tagged MYSM1 (Myb like, SWIRM and MPN domains 1), full length (human) (UniProt Q5VVJ2); test: co-IP; anti-FLAG immunoprecipitation (IgG control) from whole-cell extracts of HEK293 (Fig. 1B, EV1E) or MCF-7 (Fig. 1F) cells co-transfected with FLAG-MYSM1 (wild type or deletion mutants) and ERα; Fig. 1B: estrogen-depleted medium 48 h, then ethanol vehicle or E2 (100 nM) for 12 h; Protein A/G agarose, overnight, three rinses, immunoblot
T2 sequence: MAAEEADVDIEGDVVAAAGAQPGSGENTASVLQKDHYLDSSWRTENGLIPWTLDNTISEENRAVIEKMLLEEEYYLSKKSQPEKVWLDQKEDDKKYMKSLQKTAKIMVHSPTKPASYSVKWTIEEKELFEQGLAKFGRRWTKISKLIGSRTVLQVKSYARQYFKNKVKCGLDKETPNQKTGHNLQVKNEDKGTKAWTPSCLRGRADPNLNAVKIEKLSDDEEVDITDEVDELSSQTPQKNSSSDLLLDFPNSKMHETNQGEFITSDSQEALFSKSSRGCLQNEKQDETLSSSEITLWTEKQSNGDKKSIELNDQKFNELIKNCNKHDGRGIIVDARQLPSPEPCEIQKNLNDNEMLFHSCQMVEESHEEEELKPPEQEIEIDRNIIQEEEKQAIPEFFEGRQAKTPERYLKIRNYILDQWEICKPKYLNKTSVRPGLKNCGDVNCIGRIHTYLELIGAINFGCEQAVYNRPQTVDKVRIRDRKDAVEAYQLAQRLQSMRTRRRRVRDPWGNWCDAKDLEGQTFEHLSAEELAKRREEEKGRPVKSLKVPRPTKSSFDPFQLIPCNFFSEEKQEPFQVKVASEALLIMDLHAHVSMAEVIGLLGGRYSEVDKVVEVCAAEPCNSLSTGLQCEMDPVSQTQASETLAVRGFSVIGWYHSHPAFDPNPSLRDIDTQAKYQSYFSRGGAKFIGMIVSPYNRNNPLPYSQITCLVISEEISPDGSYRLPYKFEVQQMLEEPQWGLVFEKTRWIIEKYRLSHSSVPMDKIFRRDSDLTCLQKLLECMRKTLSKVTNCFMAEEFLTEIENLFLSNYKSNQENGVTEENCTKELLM

[3] = target: GST ERα-AF2 (282-595aa) (human) (UniProt P03372); test: pull-down; GST fusion protein from E. coli on glutathione-Sepharose beads incubated with in vitro transcribed and translated MYSM1; beads rinsed three times; SDS-PAGE and autoradiography or western blot (methods); only the target purified
[4] = target: endogenous ERα (estrogen receptor alpha) (human (endogenous in MCF-7 and T47D)) (UniProt P03372); test: co-IP; immunoprecipitation with anti-ERα or IgG from MCF-7 cells carrying control shRNA or shMYSM1; immunoblot for p300, CBP, pCAF, MYSM1 and ERα

For “endogenous ERα (estrogen receptor alpha) (from UniProt P03372 1-595)”, which binding [1] is on record?
The binding was “binds”.

How did the binding [2] turn out when “ERα (estrogen receptor alpha), ectopically expressed (from UniProt P03372 1-595)” was run?
The binding was “binds”.

B1: in vitro transcribed and translated FLAG-MYSM1 (enzyme, UniProt Q5VVJ2 1-828)
chain: MAAEEADVDIEGDVVAAAGAQPGSGENTASVLQKDHYLDSSWRTENGLIPWTLDNTISEENRAVIEKMLLEEEYYLSKKSQPEKVWLDQKEDDKKYMKSLQKTAKIMVHSPTKPASYSVKWTIEEKELFEQGLAKFGRRWTKISKLIGSRTVLQVKSYARQYFKNKVKCGLDKETPNQKTGHNLQVKNEDKGTKAWTPSCLRGRADPNLNAVKIEKLSDDEEVDITDEVDELSSQTPQKNSSSDLLLDFPNSKMHETNQGEFITSDSQEALFSKSSRGCLQNEKQDETLSSSEITLWTEKQSNGDKKSIELNDQKFNELIKNCNKHDGRGIIVDARQLPSPEPCEIQKNLNDNEMLFHSCQMVEESHEEEELKPPEQEIEIDRNIIQEEEKQAIPEFFEGRQAKTPERYLKIRNYILDQWEICKPKYLNKTSVRPGLKNCGDVNCIGRIHTYLELIGAINFGCEQAVYNRPQTVDKVRIRDRKDAVEAYQLAQRLQSMRTRRRRVRDPWGNWCDAKDLEGQTFEHLSAEELAKRREEEKGRPVKSLKVPRPTKSSFDPFQLIPCNFFSEEKQEPFQVKVASEALLIMDLHAHVSMAEVIGLLGGRYSEVDKVVEVCAAEPCNSLSTGLQCEMDPVSQTQASETLAVRGFSVIGWYHSHPAFDPNPSLRDIDTQAKYQSYFSRGGAKFIGMIVSPYNRNNPLPYSQITCLVISEEISPDGSYRLPYKFEVQQMLEEPQWGLVFEKTRWIIEKYRLSHSSVPMDKIFRRDSDLTCLQKLLECMRKTLSKVTNCFMAEEFLTEIENLFLSNYKSNQENGVTEENCTKELLM
modifications: 35S label (legend: 35S-MYSM1)
Which binding [3] does the source give for B1 here?
The binding was “binds”.

B2: endogenous MYSM1 (enzyme, UniProt Q5VVJ2 1-828)
chain: MAAEEADVDIEGDVVAAAGAQPGSGENTASVLQKDHYLDSSWRTENGLIPWTLDNTISEENRAVIEKMLLEEEYYLSKKSQPEKVWLDQKEDDKKYMKSLQKTAKIMVHSPTKPASYSVKWTIEEKELFEQGLAKFGRRWTKISKLIGSRTVLQVKSYARQYFKNKVKCGLDKETPNQKTGHNLQVKNEDKGTKAWTPSCLRGRADPNLNAVKIEKLSDDEEVDITDEVDELSSQTPQKNSSSDLLLDFPNSKMHETNQGEFITSDSQEALFSKSSRGCLQNEKQDETLSSSEITLWTEKQSNGDKKSIELNDQKFNELIKNCNKHDGRGIIVDARQLPSPEPCEIQKNLNDNEMLFHSCQMVEESHEEEELKPPEQEIEIDRNIIQEEEKQAIPEFFEGRQAKTPERYLKIRNYILDQWEICKPKYLNKTSVRPGLKNCGDVNCIGRIHTYLELIGAINFGCEQAVYNRPQTVDKVRIRDRKDAVEAYQLAQRLQSMRTRRRRVRDPWGNWCDAKDLEGQTFEHLSAEELAKRREEEKGRPVKSLKVPRPTKSSFDPFQLIPCNFFSEEKQEPFQVKVASEALLIMDLHAHVSMAEVIGLLGGRYSEVDKVVEVCAAEPCNSLSTGLQCEMDPVSQTQASETLAVRGFSVIGWYHSHPAFDPNPSLRDIDTQAKYQSYFSRGGAKFIGMIVSPYNRNNPLPYSQITCLVISEEISPDGSYRLPYKFEVQQMLEEPQWGLVFEKTRWIIEKYRLSHSSVPMDKIFRRDSDLTCLQKLLECMRKTLSKVTNCFMAEEFLTEIENLFLSNYKSNQENGVTEENCTKELLM
How did the binding [4] turn out when B2 was run?
Its binding is “binds”.
